# Results as given in the supplement of paper PMC8728848.
# The list shows a part of the results.
# B1: PX14379D-pdi-530-26-530 (Parabacteroides distasonis) (protein)
# chain: DETVYDKLPADDFGQSTAELNALIGNSHNTMKKFWTEYMHLSECSGSMAVTPTRRGGDWYDGGQYREIYMHTWTSQTSRVKSAWKAATEAIGTCNEAIRKLQNSEILTEEEKAQDVADLRGVRAFWIYVMMDYWGNIPLLTEFHPTDKVFPGNSSRQEVFDWLIQEVEEIKDICPPATTENYGSFTQGAAYSLLAKLYLNAEAWGVTFSGNAYQKVIDNCDKVMAMGYILEPNWKDNFSVTNENSKEAILAATFSSSDTGNDGNVKNELHNNTLHYKDYLSLGITASGTWNGICAQPEYVRLFDEEDARLDGTFLTGLMIDKSTGKPIMTDHNNELNHTIDVNMIPGMEYDGTNWSAVEQHDGARCFKWEFASDLTSSMGNDFHIFRLADIYLMKAEALLRGGGSVSEATALVNTIRERGYGNSDHNYATVTLKEVQLERRLELAWEVYSRQDDIRFGCFTTGMWPQSNCERKADDYLKLLPVSQDAWQVNPNLKQNPGYAAFSK
# Legend:
# Test in all cases: glycan array binding signal (z-score within array); higher = stronger binding
# Settings in all cases: glycan notation: IUPAC condensed, linker removed
# [1] = biological target: Fuc(a1-2)Gal(b1-4)[Fuc(a1-3)]GlcNAc(b1-2)Man(a1-3)[Fuc(a1-2)Gal(b1-4)[Fuc(a1-3)]GlcNAc(b1-2)Man(a1-6)]Man(b1-4)GlcNAc(b1-4)[Fuc(a1-6)]GlcNAc
# Procedure, shortened: (§1)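 Glycan array data were curated from 3228 arrays in the Consortium for Functional Glycomics database and kept only where the protein sequence was available. Glycan names were converted to IUPAC-condensed notation, and columns mapping to the same glycan were averaged. The binding signal is a within-array Z-score, averaged across arrays of the same protein sequence at different concentrations or buffers and across linkers. Negative Z-scores can be read as non-binding.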
# [2] = biological target: Fuc(a1-2)Gal(b1-4)[Fuc(a1-3)]GlcNAc(b1-2)[Fuc(a1-2)Gal(b1-4)[Fuc(a1-3)]GlcNAc(b1-4)]Man(a1-3)[Fuc(a1-2)Gal(b1-4)[Fuc(a1-3)]GlcNAc(b1-2)Man(a1-6)]Man(b1-4)GlcNAc(b1-4)GlcNAc
# Procedure, shortened: as §1
# [3] = biological target: Fuc(a1-2)Gal(b1-4)[Fuc(a1-3)]GlcNAc(b1-3)Gal(b1-4)[Fuc(a1-3)]GlcNAc
# Procedure, shortened: as §1
# [4] = biological target: Fuc(a1-2)Gal(b1-4)[Fuc(a1-3)]GlcNAc(b1-3)Gal(b1-4)[Fuc(a1-3)]GlcNAc(b1-3)Gal(b1-4)[Fuc(a1-3)]GlcNAc
# Procedure, shortened: as §1
# [5] = biological target: Fuc(a1-2)Gal(b1-4)[Fuc(a1-3)]GlcNAc(b1-3)GalNAc
# Procedure, shortened: as §1
# [6] = biological target: Fuc(a1-2)Gal(b1-4)[Fuc(a1-3)]GlcNAc(b1-3)[Neu5Ac(a2-6)Gal(b1-4)GlcNAc(b1-6)]Gal(b1-4)Glc
# Procedure, shortened: as §1
# [7] = biological target: Fuc(a1-2)Gal3S(b1-4)GlcNAc
# Procedure, shortened: as §1
# [8] = biological target: Fuc(a1-2)Gal6S(b1-3)GlcNAc
# Procedure, shortened: as §1
# [9] = biological target: Fuc(a1-2)Gal6S(b1-3)GlcNAc6S
# Procedure, shortened: as §1
# Fuc(a1-2)Gal6S(b1-4)Glc = biological target: Fuc(a1-2)Gal6S(b1-4)Glc
# Procedure, shortened: as §1
# [10] = biological target: Fuc(a1-2)Gal6S(b1-4)Glc6S
# Procedure, shortened: as §1
# Fuc(a1-2)[Gal(a1-3)]Gal = biological target: Fuc(a1-2)[Gal(a1-3)]Gal
# Procedure, shortened: as §1
# [11] = biological target: Fuc(a1-2)[Gal(a1-3)]Gal(b1-3)GalNAc
# Procedure, shortened: as §1
# [12] = biological target: Fuc(a1-2)[Gal(a1-3)]Gal(b1-3)GalNAc(b1-3)Gal(a1-4)Gal(b1-4)Glc
# Procedure, shortened: as §1
# [13] = biological target: Fuc(a1-2)[Gal(a1-3)]Gal(b1-3)GlcNAc
# Procedure, shortened: as §1
# [14] = biological target: Fuc(a1-2)[Gal(a1-3)]Gal(b1-3)GlcNAc(b1-2)Man(a1-3)[Fuc(a1-2)[Gal(a1-3)]Gal(b1-3)GlcNAc(b1-2)Man(a1-6)]Man(b1-4)GlcNAc(b1-4)GlcNAc
# Procedure, shortened: as §1
# [15] = biological target: Fuc(a1-2)[Gal(a1-3)]Gal(b1-3)GlcNAc(b1-2)Man(a1-3)[Fuc(a1-2)[Gal(a1-3)]Gal(b1-3)GlcNAc(b1-2)Man(a1-6)]Man(b1-4)GlcNAc(b1-4)[Fuc(a1-6)]GlcNAc
# Procedure, shortened: as §1
# [16] = biological target: Fuc(a1-2)[Gal(a1-3)]Gal(b1-3)GlcNAc(b1-3)GalNAc
# Procedure, shortened: as §1
# [17] = biological target: Fuc(a1-2)[Gal(a1-3)]Gal(b1-3)GlcNAc(b1-6)GalNAc
# Procedure, shortened: as §1
# [18] = biological target: Fuc(a1-2)[Gal(a1-3)]Gal(b1-4)Glc
# Procedure, shortened: as §1
# [19] = biological target: Fuc(a1-2)[Gal(a1-3)]Gal(b1-4)GlcNAc
# Procedure, shortened: as §1
# [20] = biological target: Fuc(a1-2)[Gal(a1-3)]Gal(b1-4)GlcNAc(b1-2)Man
# Procedure, shortened: as §1
# [21] = biological target: Fuc(a1-2)[Gal(a1-3)]Gal(b1-4)GlcNAc(b1-2)Man(a1-3)[Fuc(a1-2)[Gal(a1-3)]Gal(b1-4)GlcNAc(b1-2)Man(a1-6)]Man(b1-4)GlcNAc(b1-4)GlcNAc
# Procedure, shortened: as §1
# [22] = biological target: Fuc(a1-2)[Gal(a1-3)]Gal(b1-4)GlcNAc(b1-2)Man(a1-3)[Fuc(a1-2)[Gal(a1-3)]Gal(b1-4)GlcNAc(b1-2)Man(a1-6)]Man(b1-4)GlcNAc(b1-4)[Fuc(a1-6)]GlcNAc
# Procedure, shortened: as §1
# [23] = biological target: Fuc(a1-2)[Gal(a1-3)]Gal(b1-4)GlcNAc(b1-3)GalNAc
# Procedure, shortened: as §1
# [24] = biological target: Fuc(a1-2)[Gal(a1-3)]Gal(b1-4)GlcNAc(b1-3)[Fuc(a1-2)[Gal(a1-3)]Gal(b1-4)GlcNAc(b1-6)]GalNAc
# Procedure, shortened: as §1
# [25] = biological target: Fuc(a1-2)[Gal(a1-3)]Gal(b1-4)GlcNAc(b1-6)GalNAc
# Procedure, shortened: as §1
# [26] = biological target: Fuc(a1-2)[Gal(a1-3)]Gal(b1-4)[Fuc(a1-3)]Glc
# Procedure, shortened: as §1
# [27] = biological target: Fuc(a1-2)[Gal(a1-3)]Gal(b1-4)[Fuc(a1-3)]GlcNAc
# Procedure, shortened: as §1
# [28] = biological target: Fuc(a1-2)[Gal(a1-3)]Gal(b1-4)[Fuc(a1-3)]GlcNAc(b1-3)GalNAc
# Procedure, shortened: as §1
# [29] = biological target: Fuc(a1-2)[Gal(a1-4)]Gal(b1-4)GlcNAc
# Procedure, shortened: as §1
# [30] = biological target: Fuc(a1-2)[GalNAc(a1-3)]Gal
# Procedure, shortened: as §1
# [31] = biological target: Fuc(a1-2)[GalNAc(a1-3)]Gal(b1-3)GalNAc(a1-3)[Fuc(a1-2)]Gal(b1-4)GlcNAc
# Procedure, shortened: as §1
# [32] = biological target: Fuc(a1-2)[GalNAc(a1-3)]Gal(b1-3)GalNAc(b1-3)Gal(a1-4)Gal(b1-4)Glc
# Procedure, shortened: as §1
# [33] = biological target: Fuc(a1-2)[GalNAc(a1-3)]Gal(b1-3)GlcNAc
# Procedure, shortened: as §1
# [34] = biological target: Fuc(a1-2)[GalNAc(a1-3)]Gal(b1-3)GlcNAc(b1-2)Man(a1-3)[Fuc(a1-2)[GalNAc(a1-3)]Gal(b1-3)GlcNAc(b1-2)Man(a1-6)]Man(b1-4)GlcNAc(b1-4)GlcNAc
# Procedure, shortened: as §1
# [35] = biological target: Fuc(a1-2)[GalNAc(a1-3)]Gal(b1-3)GlcNAc(b1-2)Man(a1-3)[Fuc(a1-2)[GalNAc(a1-3)]Gal(b1-3)GlcNAc(b1-2)Man(a1-6)]Man(b1-4)GlcNAc(b1-4)[Fuc(a1-6)]GlcNAc
# Procedure, shortened: as §1
# [36] = biological target: Fuc(a1-2)[GalNAc(a1-3)]Gal(b1-3)GlcNAc(b1-3)GalNAc
# Procedure, shortened: as §1
binder,measurement,setting,value
B1,glycan array binding signal (z-score),[1],0.465
same,glycan array binding signal (z-score),[2],-0.436
same,glycan array binding signal (z-score),[3],-1.04
same,glycan array binding signal (z-score),[4],2.52
same,glycan array binding signal (z-score),[5],-0.394
same,glycan array binding signal (z-score),[6],-0.349
same,glycan array binding signal (z-score),[7],-0.128
same,glycan array binding signal (z-score),[8],0.394
same,glycan array binding signal (z-score),[9],2.88
same,glycan array binding signal (z-score),Fuc(a1-2)Gal6S(b1-4)Glc,1.22
same,glycan array binding signal (z-score),[10],-0.709
same,glycan array binding signal (z-score),Fuc(a1-2)[Gal(a1-3)]Gal,0.08
same,glycan array binding signal (z-score),[11],0.313
same,glycan array binding signal (z-score),[12],-0.361
same,glycan array binding signal (z-score),[13],-0.505
same,glycan array binding signal (z-score),[14],0.313
same,glycan array binding signal (z-score),[15],-0.155
same,glycan array binding signal (z-score),[16],0.049
same,glycan array binding signal (z-score),[17],-0.421
same,glycan array binding signal (z-score),[18],0.621
same,glycan array binding signal (z-score),[19],-0.423
same,glycan array binding signal (z-score),[20],1.09
same,glycan array binding signal (z-score),[21],0.385
same,glycan array binding signal (z-score),[22],-0.093
same,glycan array binding signal (z-score),[23],-0.332
same,glycan array binding signal (z-score),[24],-0.331
same,glycan array binding signal (z-score),[25],-0.679
same,glycan array binding signal (z-score),[26],0.137
same,glycan array binding signal (z-score),[27],0.487
same,glycan array binding signal (z-score),[28],-0.46
same,glycan array binding signal (z-score),[29],0.172
same,glycan array binding signal (z-score),[30],-0.177
same,glycan array binding signal (z-score),[31],-1.03
same,glycan array binding signal (z-score),[32],0.364
same,glycan array binding signal (z-score),[33],-0.423
same,glycan array binding signal (z-score),[34],0.075
same,glycan array binding signal (z-score),[35],-0.214
same,glycan array binding signal (z-score),[36],-0.428

# Rewritten with bars between the fields: entries from further up.
binder | measurement | setting | value
B1 | glycan array binding signal (z-score) | [16] | 0.049
same | glycan array binding signal (z-score) | [32] | 0.364
